Reference: patent publication US9284303B2, “Benzimidazole cannabinoid agonists bearing a substituted heterocyclic group” (priority 2006, dated 2016)

The chains behind the UniProt entries cited, without tags or fusion partners.
UniProt P21554, whole entry: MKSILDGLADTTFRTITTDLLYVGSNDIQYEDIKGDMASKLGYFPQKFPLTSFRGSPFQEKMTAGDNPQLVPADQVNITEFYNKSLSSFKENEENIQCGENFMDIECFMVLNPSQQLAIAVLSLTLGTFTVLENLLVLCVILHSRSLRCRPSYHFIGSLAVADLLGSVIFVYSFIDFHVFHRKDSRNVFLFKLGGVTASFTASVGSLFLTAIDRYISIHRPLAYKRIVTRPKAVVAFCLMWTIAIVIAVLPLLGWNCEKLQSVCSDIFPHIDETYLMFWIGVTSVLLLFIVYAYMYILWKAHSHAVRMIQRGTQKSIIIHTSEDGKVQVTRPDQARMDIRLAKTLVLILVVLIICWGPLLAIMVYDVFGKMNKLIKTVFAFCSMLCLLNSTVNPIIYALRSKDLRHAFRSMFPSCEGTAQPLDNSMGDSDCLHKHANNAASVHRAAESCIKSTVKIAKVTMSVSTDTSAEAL
UniProt P34972, whole entry: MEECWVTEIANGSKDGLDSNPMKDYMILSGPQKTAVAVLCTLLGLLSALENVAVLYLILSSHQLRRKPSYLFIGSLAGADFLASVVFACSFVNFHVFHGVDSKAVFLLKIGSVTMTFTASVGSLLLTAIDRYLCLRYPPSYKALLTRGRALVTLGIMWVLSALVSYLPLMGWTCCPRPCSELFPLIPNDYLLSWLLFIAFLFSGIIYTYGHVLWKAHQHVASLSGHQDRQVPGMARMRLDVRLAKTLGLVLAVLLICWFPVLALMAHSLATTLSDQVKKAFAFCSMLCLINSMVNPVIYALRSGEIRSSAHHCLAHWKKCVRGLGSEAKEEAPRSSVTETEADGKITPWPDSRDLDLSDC

Tests used:
[1] = target: human CB1 (hCB1) receptor (Homo sapiens, UniProt P21554); experiment: Inhibition of forskolin-activated cAMP production upon activation of hCB1 (HTRF), CHO-K1 cells; assay type: cell-based; details: pEC50=-log(EC50)
Description: Functional activity of the test compounds was assessed by measuring their potency to inhibit forskolin-activated cAMP production upon activation of the human CB1 (hCB1) or human CB2 (hCB2) receptor through homogenous time resolved fluorescence (HTRF) assays.
CHO-K1 cells stably transfected with either hCB1 or hCB2 were grown up to 80-90% confluence in T175 Falcon flasks in DMEM/NUT MIX F-12 culture medium complemented with 2% Solution A (5.10^6 IU/l penicillin G, 5 g/l streptomycin sulphate, 5.5 g/l pyruvate, 14.6 g/l L-glutamine, 1M NaOH) and 10% foetal calf serum. Before the experiments, medium was removed, cells were washed with PBS/EDTA (140 mM NaCl, 1 mM Naz-EDTA, 8 mM Na2HPO4.2H2O, 8.5 mM KH2PO4, 2.7 mM KCl, 21 mM glucose), resuspended in stimulation buffer (HBSS 1x, IBMX 1 mM, Hepes 5 mM, MgCl2 10 mM, BSA 0.1%, pH 7.4). Cells were diluted to a concentration of 8.10^5 cell/ml for hCB1 experiments and 10^6 cells/ml for hCB2 experiments. Assays were performed using the cAMP Dynamic HTRF kit (CIS bio international, France) according to the recommendations of the manufacturer. […]
After equilibration of the reaction mixtures for 1 to 24 hours in dark at room temperature, fluorescence was measured at 665 nm and 620 nm using a Discovery microplate fluorescence counter (Perkin Elmer), and the signal ratio of 665 nm/620 nm was calculated. […]

[2] = target: human CB2 (hCB2) receptor (Homo sapiens, UniProt P34972); experiment: Inhibition of forskolin-activated cAMP production upon activation of hCB2 (HTRF), CHO-K1 cells; assay type: cell-based

## CC1=C([S+]([O-])c2ccc3c(c2)nc(C(C)(C)C)n3CC2CCOCC2)C=N[NH+]1[O-] (stereo not drawn)
[1]
  CB1 pEC50: 6.11
[2]; Table C-1, selectivity hCB2 over hCB1
  ratio CB2 agonism over CB1 agonism: 437
[2]; hCB2-CHO-K1 cells, forskolin-activated cAMP, pEC50=-log(EC50)
  CB2 pEC50: 8.75

The structures given here were assigned with low confidence; some may be wrong.
